Values of other authors, collected in patent publication US6331287A, “2'-deoxy-2'-fluoro-d-arabinofuranosyl pyrimidine nucleoside” (University Advanced Bio-imaging Associates, priority 1998, dated 2001).
For at least one compound, name, drawing or mass did not settle the structure.

Settings: cited from earlier work

## Cc1cn(C2OC(CO)C(O)C2F)c(=O)[nH]c1=O (single isomer, unassigned) [ribo-isomer]
  diminished biological activity of the ribo-isomer: 1000 fold
